## Cleaved PARP in drug-treated melanoma cells

Values as published with doi:10.1371/journal.pone.0140310, rounded.

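Human melanoma cell lines in 1,536-well plates were treated with two drugs together for 72 h, then fixed, stained and imaged. The read-out is the fraction of cleaved-PARP-positive nuclei, in % of that fraction in the DMSO control; 200 means twice the control level of this apoptosis marker. Concentrations were fixed for each drug; these are the higher of two levels. No replicate spread is given; individual values may be noisy. The marker varies much from line to line, for technical or biological reasons.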 This is part of the screen, not chosen by result.

Drugs:
nilutamide (5000 nM): CC1(C)NC(=O)N(c2ccc([N+](=O)[O-])c(C(F)(F)F)c2)C1=O
sunitinib (2000 nM): CCN(CC)CCNC(=O)c1c(C)[nH]c(/C=C2\C(=O)Nc3ccc(F)cc32)c1C
GW441756 (2000 nM): Cn1cc(/C=C2\C(=O)Nc3cccnc32)c2ccccc21
GW9662 (10000 nM): O=C(Nc1ccccc1)c1cc([N+](=O)[O-])ccc1Cl
dovitinib (500 nM): CN1CCN(c2ccc3nc(-c4c(N)c5c(F)cccc5[nH]c4=O)[nH]c3c2)CC1
GSK650394 (800 nM): O=C(O)c1ccc(-c2c[nH]c3ncc(-c4ccccc4)cc23)cc1C1CCCC1
ENMD-2076 (200 nM): Cc1cc(Nc2cc(N3CCN(C)CC3)nc(/C=C/c3ccccc3)n2)n[nH]1
SU6656 (2000 nM): CN(C)S(=O)(=O)c1ccc2c(c1)/C(=C/c1cc3c([nH]1)CCCC3)C(=O)N2

Pair | IPC-298
GW441756 and GSK650394 | 66.0
nilutamide and ENMD-2076 | 72.9
nilutamide and GW441756 | 54.3
sunitinib and SU6656 | 77.0
GSK650394 and GW9662 | 131
ENMD-2076 and GW9662 | 113
ENMD-2076 and dovitinib | 189
ENMD-2076 and GW441756 | 103
SU6656 and nilutamide | 40.4
sunitinib and nilutamide | 152
GW9662 and GW441756 | 93.5
GW9662 and dovitinib | 161
dovitinib and GSK650394 | 484
GSK650394 and sunitinib | 99.9
GSK650394 and SU6656 | 136
ENMD-2076 and GSK650394 | 77.8
SU6656 and ENMD-2076 | 233
sunitinib and dovitinib | 459
dovitinib and SU6656 | 395
SU6656 and GW441756 | 148
dovitinib and GW441756 | 115

Some entries from above, unchanged:

| Pair | IPC-298 |
|---|---|
| dovitinib and GW441756 | 115 |
| sunitinib and dovitinib | 459 |